Experimental data taken from patent publication US5962516A, “Immunosuppressive compounds and methods” (priority 1999, dated 1999).
Structures can show the parent of a compound that is named as a salt. The name of at least one read-out is uncertain.

Legend:
mouse thymocytes = test: Cytotoxicity by MTT reduction reported with the IL-1 assay (Table I); assay type: cell-based; conditions: cytotoxic when toxicity greater than 25%, 1440 min
Protocol: (§1) Potential cytotoxicity of the test samples was assessed by the measurement of their effect on the reduction of MTT (3-[4,5-Dimethylthiazole-2-yl]-2,5-diphenyltetrazolium bromide) by cultured cells. MTT, a yellow-colored compound, is reduced by mitochondrial enzymes to form the purple crystalline reduction product formazane, providing an index of cellular respiration on viable cells as well as a sensitive assay for cytotoxicity (Mossmann, 1983).
(§2) The cytotoxicity was assessed in cultured human PBMC and mouse thymocytes. A stock solution of MTT (Sigma) at 5 mg/ml in phosphate buffered saline, pH 7.4, was prepared and stored in the dark at 4° C. PBMCs or thymocytes were cultured with various concentrations of test samples in flatbottom 96-well tissue culture plates (Costar) under the same conditions as those described above, but the stimulants (X-35 or IL-1+PHA) were replaced by appropriate medium. Untreated cells with medium alone and without the test samples were used as controls. After incubation for 21 hours, 25 μl of MTT solution was added to each well. After an additional three hours of incubation, the experiment was terminated by addition of a solution of 10% sodium dodecyl sulfate in 0.01 N HCl. Following overnight incubation at 37° C. to solubilize the formazane crystals, optical density was determined at 570-650 nm in microplate reader. The following formula was used to calculate % of toxicity:
(§3) % of toxicity=(1-sample OD/control OD)×100
(§4) Samples were defined as cytotoxic when toxicity was greater than 25% in the assay system used.

[1] = tested on: cultured human PBMC and mouse thymocytes; test: Cytotoxicity by MTT reduction reported with the MLR assay (Table II); assay type: cell-based; conditions: cytotoxic when toxicity greater than 25%, 1440 min
Protocol: as §1, §2, §3, §4

Row | SMILES | Toxicity (Table I) (mouse thymocytes) | Toxicity (Table II) [1] | Toxicity (Table I) (mouse thymocytes; Succinate Sodium Salt) | Toxicity (Table II) ([1]; Succinate Sodium Salt)
1 | CC(C)C12OC1C1OC13C1(C)CCC4=C(COC4=O)C1CC1OC13C2OC(=O)CCC(=O)O (stereo not shown) [YM-273, Triptolide Succinate Tris Salt] | 12000 ng/mL | 5529 ng/mL | – | –
2 | CC(C)C12OC1C1OC13C1(C)CCC4=C(COC4=O)C1CC1OC13C2OC(=O)CCC(=O)O (stereo not shown) [YM-276, Triptolide Succinate Lysine Salt] | > 12500 ng/mL | 1936 ng/mL | – | –
3 | CC(C)C12OC1C1OC13C1(C)CCC4=C(COC4=O)C1CC1OC13C2OC(=O)CCC(=O)O (stereo not shown) [YM-262, Triptolide Succinate] | – | 2258 ng/mL | – | –
4 | CC(C)C12OC1C1OC13C1(C)CCC4=C(COC4=O)C1CC1OC13C2OC(=O)CCC(=O)O (stereo not shown) [YM-274, Triptolide Succinate Sodium Salt] | – | – | > 12500 ng/mL | 2498 ng/mL
